In paper PMC5788269 one finds binding data, which are given here for five molecules.

This assay concerns the target T1, Ref2, TAPS-tagged (native CPF/APT subunit) (yeast) (UniProt P42073).
T1 sequence: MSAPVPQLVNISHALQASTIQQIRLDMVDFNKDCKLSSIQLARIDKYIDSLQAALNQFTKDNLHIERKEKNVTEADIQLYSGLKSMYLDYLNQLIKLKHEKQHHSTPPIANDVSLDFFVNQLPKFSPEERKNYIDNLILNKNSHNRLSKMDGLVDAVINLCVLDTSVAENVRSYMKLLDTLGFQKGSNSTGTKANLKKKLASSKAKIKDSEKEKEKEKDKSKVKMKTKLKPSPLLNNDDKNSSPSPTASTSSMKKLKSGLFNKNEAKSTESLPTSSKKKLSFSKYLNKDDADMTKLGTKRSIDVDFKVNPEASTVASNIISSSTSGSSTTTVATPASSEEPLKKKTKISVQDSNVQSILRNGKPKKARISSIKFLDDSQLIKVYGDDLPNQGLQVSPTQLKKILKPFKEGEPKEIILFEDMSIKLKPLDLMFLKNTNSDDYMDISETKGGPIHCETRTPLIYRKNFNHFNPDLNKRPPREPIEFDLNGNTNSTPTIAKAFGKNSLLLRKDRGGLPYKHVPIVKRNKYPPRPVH
Put plainly: affinity purification with mass spectrometry; native CPF/APT purified by a tandem affinity purification tag from a yeast strain containing TAPS-tagged Ref2; Coomassie SDS-PAGE; composition analysed by noncovalent nanoESI-MS.

Results are given in words; binding and its absence hold for the method and conditions named. Binding seen in cells or lysates may run through a third protein. A yes stands for co-enrichment or nearness to the bait. Other partners may have been found. Sequences can lack the tags named with a protein.

B1: Pti1 (native CPF/APT subunit) (protein, UniProt P39927 1-425)
chain: MTDPRRRTGRHFLTPENLSSTLQITNLPPEWNQDIITSVVAGSGPVIDIKAKNDPRTGKLTGVLFDYLTSKDCKRAWEILNRIENFPVKIEQIIPPNYKDHLRETANKNSQKQVLQLNRDSYPFEAGLELPFEMVTEVPIPRRPPPPQAANNTNSVSNNTNIQFPDILSKASKHLPSFQDGSIIAPDKISQNLSKIPPLQLIEIISNLKILSNQENIQKSQLESFLDTNSDITISVTQALLEMGFIDYSVVTKVLKSQVGEAPSLLSSNNTSNSNTPVSVIRNNTPLHVPSNEVSNNPNNMPLNVAMPMPMSTPPFIPLPLQQQPFGFAPPGPFMPPAQGPSMGQPVLANQLGQVQQQNISSTEGPSNANKANDSGTINMAKLQLLPENQQDMIKQVLTLTPAQIQSLPSDQQLMVENFRKEYII
Consider B1, for which the binding result was “binds”.

B2: Mpe1 (native CPF subunit) (protein, UniProt P35728 1-441)
chain: MSSTIFYRFKSQRNTSRILFDGTGLTVFDLKREIIQENKLGDGTDFQLKIYNPDTEEEYDDDAFVIPRSTSVIVKRSPAIKSFSVHSRLKGNVGAAALGNATRYVTGRPRVLQKRQHTATTTANVSGTTEEERIASMFATQENQWEQTQEEMSAATPVFFKSQTNKNSAQENEGPPPPGYMCYRCGGRDHWIKNCPTNSDPNFEGKRIRRTTGIPKKFLKSIEIDPETMTPEEMAQRKIMITDEGKFVVQVEDKQSWEDYQRKRENRQIDGDETIWRKGHFKDLPDDLKCPLTGGLLRQPVKTSKCCNIDFSKEALENALVESDFVCPNCETRDILLDSLVPDQDKEKEVETFLKKQEELHGSSKDGNQPETKKMKLMDPTGTAGLNNNTSLPTSVNNGGTPVPPVPLPFGIPPFPMFPMPFMPPTATITNPHQADASPKK
B2: the binding entry is “binds”.

B3: Syc1 (native APT subunit) (protein, UniProt Q08553 1-188)
chain: MDLPKDKSDRTHQRINLNNSGTDRTNDLYLHIVQTFGCIETTATENATKLLMLGDVEVEISASSVSIEWTQKSMISQTIADSIVIMIIGLCASDKNVLSESELKERNHNVWKIQELQNLFREQFGDSFSIDEGIGKKENVKNGSVTIGKSKATIDFSTMKLIDCNSNPLKGRVESILSIGQKLTTPLC
As for B3, the binding result is given as “binds”.

B4: Swd2 (native CPF/APT subunit) (protein, UniProt P36104 1-329)
chain: MTTVSINKPNLLKFKHVKSFQPQEKDCGPVTSLNFDDNGQFLLTSSSNDTMQLYSATNCKFLDTIASKKYGCHSAIFTHAQNECIYSSTMKNFDIKYLNLETNQYLRYFSGHGALVNDLKMNPVNDTFLSSSYDESVRLWDLKISKPQVIIPSLVPNCIAYDPSGLVFALGNPENFEIGLYNLKKIQEGPFLIIKINDATFSQWNKLEFSNNGKYLLVGSSIGKHLIFDAFTGQQLFELIGTRAFPMREFLDSGSACFTPDGEFVLGTDYDGRIAIWNHSDSISNKVLRPQGFIPCVSHETCPRSIAFNPKYSMFVTADETVDFYVYDE
On to B4, for which the binding result is “binds”.

B5: Pta1 (native CPF/APT subunit) (protein, UniProt Q01329 1-785)
chain: MSSAEMEQLLQAKTLAMHNNPTEMLPKVLETTASMYHNGNLSKLKLPLAKFFTQLVLDVVSMDSPIANTERPFIAAQYLPLLLAMAQSTADVLVYKNIVLIMCASYPLVLDLVAKTSNQEMFDQLCMLKKFVLSHWRTAYPLRATVDDETDVEQWLAQIDQNIGVKLATIKFISEVVLSQTKSPSGNEINSSTIPDNHPVLNKPALESEAKRLLDMLLNYLIEEQYMVSSVFIGIINSLSFVIKRRPQTTIRILSGLLRFNVDAKFPLEGKSDLNYKLSKRFVERAYKNFVQFGLKNQIITKSLSSGSGSSIYSKLTKISQTLHVIGEETKSKGILNFDPSKGNSKKTLSRQDKLKYISLWKRQLSALLSTLGVSTKTPTPVSAPATGSSTENMLDQLKILQKYTLNKASHQGNTFFNNSPKPISNTYSSVYSLMNSSNSNQDVTQLPNDILIKLSTEAILQMDSTKLITGLSIVASRYTDLMNTYINSVPSSSSSKRKSDDDDDGNDNEEVGNDGPTANSKKIKMETEPLAEEPEEPEDDDRMQKMLQEEESAQEISGDANKSTSAIKEIAPPFEPDSLTQDEKLKYLSKLTKKLFELSGRQDTTRAKSSSSSSILLDDDDSSSWLHVLIRLVTRGIEAQEASDLIREELLGFFIQDFEQRVSLIIEWLNEEWFFQTSLHQDPSNYKKWSLRVLESLGPFLENKHRRFFIRLMSELPSLQSDHLEALKPICLDPARSSLGFQTLKFLIMFRPPVQDTVRDLLHQLKQEDEGLHKQCDSLLDRLK
For B5, the binding result was “binds”.
